Assay results: publication PMC7175094
No constants are given. Whether binding was seen depends on the method and setting.

The chains behind the UniProt entries cited, without tags or fusion partners. Residues count along the entry.
UniProt P02768, residues 25-609: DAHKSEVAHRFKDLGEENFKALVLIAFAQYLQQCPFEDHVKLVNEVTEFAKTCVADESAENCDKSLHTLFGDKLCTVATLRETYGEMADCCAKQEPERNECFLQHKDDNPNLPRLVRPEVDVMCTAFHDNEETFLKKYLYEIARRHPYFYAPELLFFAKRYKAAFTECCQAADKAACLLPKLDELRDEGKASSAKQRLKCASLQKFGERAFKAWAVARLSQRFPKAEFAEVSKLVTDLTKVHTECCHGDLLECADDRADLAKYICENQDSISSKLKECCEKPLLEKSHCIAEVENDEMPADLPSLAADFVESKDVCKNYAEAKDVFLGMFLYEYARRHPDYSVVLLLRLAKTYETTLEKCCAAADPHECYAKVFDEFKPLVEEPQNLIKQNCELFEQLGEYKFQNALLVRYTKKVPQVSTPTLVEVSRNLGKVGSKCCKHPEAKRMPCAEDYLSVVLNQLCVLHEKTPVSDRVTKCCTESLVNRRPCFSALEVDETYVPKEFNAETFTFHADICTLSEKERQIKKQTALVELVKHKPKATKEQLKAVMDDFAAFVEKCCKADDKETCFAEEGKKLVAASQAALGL

Target: Human serum albumin (human) (UniProt P02768)
Experiment: SEC; both purified

B1: Csa2 (protein, UniProt Q5A0X8 21-147)
chain: APAVTAAPAPAADNPYTIYPPVPKTASINGFADRIYDQIPKCAQECVKQSTSSTPCPYWDTGCLCVIPNFTGAVGNCVASKCRGADVTNFRKLAVGACAAAGVWDPYWIIPASVSSALDAAATATGN
binding: no binding
